Test results published in EP4768498A1, “PEPTIDE, DROPLET FORMING KIT, DROPLET FORMING METHOD, HYDROPHOBIC SUBSTANCE CONCENTRATION METHOD, AND PROTEIN FOLDING METHOD” (National University Corporation Tokyo University Of …, priority 2023, dated 2026).
At least one peptide structure holds a part that was inferred or is arguable (an end, a ring closure or a residue). No end group written: not given here.

Legend:
[1] = Dissolution in 50 mM Tris-HCl (pH: 7.5) containing 0.3 M sodium chloride; format: physicochemical
[2] = Phase-contrast microscope observation of droplets; format: physicochemical; conditions: 1 wt% solution, 60°C
Experimental: Phase-contrast microscope observation was carried out using IX-73 manufactured by Olympus Corporation (Tokyo, Japan). A sample was dropped onto a slide glass, and a cover glass was placed over the sample through a silicone spacer having a thickness of 0.2 mm. The sample was observed while incubating at 60°C. The samples were prepared by dissolving FF-ELP4 or LL-ELP4 in 50 mM Tris-HCl (pH: 7.5) containing 0.3 M sodium chloride. FF-ELP4 was dissolved to a final concentration of 1 wt%. LL-ELP4 was dissolved to a final concentration of 5 wt%.
Phase-contrast microscope observation was carried out using IX-73 manufactured by Olympus Corporation (Tokyo, Japan). A sample in which a cover glass was placed on the peptide solution through a silicone spacer having a thickness of 0.2 mm on a slide glass was observed while incubating at 60°C. The peptide solution was prepared by dissolving LL-ELP4 to 2 wt% and LL-ELP4-SS to 0.7 mM (0.16 wt%) in 50 mM Tris-HCl (pH: 7.5) containing 0.3 M sodium chloride.
Phase-contrast microscope observation was carried out using IX-73 manufactured by Olympus Corporation (Tokyo, Japan). A sample in which a cover glass was placed on the peptide solution through a silicone spacer having a thickness of 0.2 mm on a slide glass was observed while incubating at 60°C. […]

[3] = system: Reduced and denatured BPTI; test: Evaluation of incorporation of denatured BPTI into droplets; design: species or system Bovine; conditions: peptide 1 wt%, BPTI 30 µM, 60°C overnight
Experimental: (§1) FF-ELP4 or LL-ELP4 was dissolved in 50 mM Tris-HCl (pH: 7.5) containing 0.3 M sodium chloride, and pre-incubated at 60°C for 1 minute. […] The mixture was incubated at 60°C overnight, centrifuged (8,000 rpm, 25°C, 30 seconds) using a high-spin mini centrifuge HSC-12000 manufactured by Taiyo Corporation (Osaka, Japan), and quickly separated into a supernatant and a precipitate (droplets). 400 µL of a 1 M HCl aqueous solution was added to each of the supernatant and the precipitate to stop the reaction. For each of the supernatant and the precipitate, the reduced and denatured BPTI or the native BPTI was quantified by HPLC analysis. The analysis was performed by reverse-phase high-performance liquid chromatography (RP-HPLC) using a Primaide HPLC system (1410 UV detector, 1310 column oven, 1110 pump) manufactured by Hitachi High-Tech Corporation (Tokyo, Japan) and a TSKgel Protein C4-300 column (4.6 mmφ × 150 mm) manufactured by Tosoh Corporation (Tokyo, Japan) at a flow rate of 1.0 mL·min^-1 (Solvent A: water containing 0.05% TFA, Solvent B: acetonitrile containing 0.05% TFA; ratio of Solvent A: linear gradient of 95% at 0 min, 80% at 15 min, and 30% at 115 min).

[4] = Transmittance measurement (transition temperature); format: physicochemical; conditions: 1 wt% solution, 50 mM Tris-HCl (pH: 7.5) containing 0.3 M sodium chloride, absorbance at 600 nm
Experimental: FF-ELP4 or LL-ELP4 was dissolved in 50 mM Tris-HCl (pH: 7.5) containing 0.3 M sodium chloride and incubated at 60°C. LL-ELP4 was dissolved in 50 mM Tris-HCl (pH: 7.5) to a final concentration of 2 wt%. Since FF-ELP4 could not be dissolved to a final concentration of 2 wt%, it was dissolved in 50 mM Tris-HCl (pH: 7.5) to a final concentration of 1 wt%. Transmittance measurement was carried out using an ultraviolet-visible spectrophotometer V-650 manufactured by JASCO Corporation (Tokyo, Japan). For the samples prepared as described above, absorbance at a wavelength of 600 nm was monitored while changing the temperature. A quartz cell (optical path length: 10 mm) of Sansyo Co., Ltd. was used as a measurement cell. […] LL-ELP4-SS was dissolved in 50 mM Tris-HCl (pH: 7.5) containing 0.3 M sodium chloride and incubated at 60°C. LL-ELP4-SS was dissolved in 50 mM Tris-HCl (pH: 7.5) to a final concentration of 2 wt%. Transmittance measurement was carried out using an ultraviolet-visible spectrophotometer V-650 manufactured by JASCO Corporation (Tokyo, Japan). For the samples prepared as described above, absorbance at a wavelength of 600 nm was monitored while changing the temperature. A quartz cell (optical path length: 10 mm) of Sansyo Co., Ltd. was used as a measurement cell.

Native BPTI = test: Evaluation of incorporation of native BPTI into droplets; design: species or system Bovine; conditions: peptide 1 wt%, BPTI 30 µM, 60°C overnight
Experimental: as §1

FFVPGVGVPGVGVPGVGVPGVG [FF-ELP4, reference compound]
final concentration that could be dissolved [1]: < 2 wt% | droplets observed [2]: only extremely small droplets were observed | Reduced and denatured BPTI Inside droplets [3]: 17% | Reduced and denatured BPTI Outside droplets [3]: 83% | transition temperature [4]: 44 °C | Native BPTI Inside droplets (Native BPTI): 6% | Native BPTI Outside droplets (Native BPTI): 94%
